Experimental data: PubChem BioAssay AID1259405 (NCATS, 2018)
Here is one part, drawn at random, of about 50,000 reagents tested. Over the whole deposit, about 4,000 (8%) were called active. 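Mouse siRNA library applied to hamster cells; one well for each siRNA.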

Assay: 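Silenced genes that increase secreted GFP made by CHO cells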 (primary screen)
Cell system: Chinese hamster CHO-K1 ovary cells with stable secreted eGFP expression
Knock-down reagent: single siRNA against mouse genes, 0.8 pmol siRNA per well (2 µl of 400 nM stock)
Time to read-out: 3 days
Read-out: 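Per-well intracellular GFP measured by laser scanning cytometry, plus viability from ATP luminescence, each relative to plate median of non-targeting control wells, in %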
Direction: GFP, % of control: higher = more GFP per well, higher productivity; viability (ATP), % of control: higher = more viable cells (more ATP)
Rule for the call: 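Called active when intracellular GFP, relative to negative control, is at or above 120%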

no.	gene	PubChem SID	GFP, % of control	viability (ATP), % of control	call
1	Neurog3 (neurogenin 3)	SID363573765	81.2	63.6	inactive
2	Neurog3 (neurogenin 3)	SID363581509	102	69.8	inactive
3	Neurog3 (neurogenin 3)	SID363583973	99.4	129	inactive
4	Bet1l (Bet1 golgi vesicular membrane trafficking protein like)	SID363553841	51.7	44.8	inactive
5	Bet1l (Bet1 golgi vesicular membrane trafficking protein like)	SID363561798	90.7	82	inactive
6	Bet1l (Bet1 golgi vesicular membrane trafficking protein like)	SID363565536	67.3	71.1	inactive
7	Clcf1 (cardiotrophin-like cytokine factor 1)	SID363541561	69.8	62.8	inactive
8	Clcf1 (cardiotrophin-like cytokine factor 1)	SID363556188	58.8	66.3	inactive
9	Clcf1 (cardiotrophin-like cytokine factor 1)	SID363566477	79.2	45.1	inactive
10	Cd52 (CD52 antigen)	SID363550208	72.5	88	inactive
11	Cd52 (CD52 antigen)	SID363564717	117	75.7	inactive
12	Cd52 (CD52 antigen)	SID363588262	76	105	inactive
13	Pik3ca	SID363570889	84.6	75.9	inactive
14	Or56a4 (olfactory receptor family 56 subfamily A member 4)	SID363544906	83.7	44.7	inactive
15	Or56a4 (olfactory receptor family 56 subfamily A member 4)	SID363551234	80.9	58.3	inactive
16	Or56a4 (olfactory receptor family 56 subfamily A member 4)	SID363557783	62.7	105	inactive
17	Fev (FEV transcription factor, ETS family member)	SID363541539	46.6	69.8	inactive
18	Fev (FEV transcription factor, ETS family member)	SID363556166	67.4	83.6	inactive
19	Fev (FEV transcription factor, ETS family member)	SID363566455	56.6	45.2	inactive
20	Ndufa3 (NADH:ubiquinone oxidoreductase subunit A3)	SID363581882	71	69.5	inactive
21	Ndufa3 (NADH:ubiquinone oxidoreductase subunit A3)	SID363589376	49.6	43.9	inactive
22	Scn4b (sodium channel, type IV, beta)	SID363547733	73.8	60.6	inactive
23	Scn4b (sodium channel, type IV, beta)	SID363558502	156	73.3	active
24	Scn4b (sodium channel, type IV, beta)	SID363560260	85.9	97	inactive
25	Gnpda2 (glucosamine-6-phosphate deaminase 2)	SID363569800	85.8	79.4	inactive
26	Gnpda2 (glucosamine-6-phosphate deaminase 2)	SID363576840	98	79	inactive
27	Gnpda2 (glucosamine-6-phosphate deaminase 2)	SID363578248	81.5	66.8	inactive
28	Fermt2 (fermitin family member 2)	SID363554756	95.8	76.1	inactive
29	Fermt2 (fermitin family member 2)	SID363568203	39.3	77.2	inactive
30	Fermt2 (fermitin family member 2)	SID363586262	74.9	91.7	inactive
31	Slc25a13	SID363569944	104	105	inactive
32	Slc25a13	SID363576984	114	85.4	inactive
33	Slc25a13	SID363578392	107	97.7	inactive
34	Rgs14 (regulator of G-protein signaling 14)	SID363570207	67.1	93.6	inactive
35	Rgs14 (regulator of G-protein signaling 14)	SID363576543	93	107	inactive
36	Rgs14 (regulator of G-protein signaling 14)	SID363579711	58.5	58.7	inactive

A few values from the list.
For “viability (ATP), % of control”, Ndufa3 (NADH:ubiquinone oxidoreductase subunit A3) [SID363589376] shows 43.9
Fev (FEV transcription factor, ETS family member) [SID363541539], GFP, % of control: 46.6
For “viability (ATP), % of control”, Cd52 (CD52 antigen) [SID363550208] reads 88
Under “viability (ATP), % of control”, Bet1l (Bet1 golgi vesicular membrane trafficking protein like) [SID363561798] has 82
